These are yes or no findings as the source states them, for the method shown. Binding seen in cells or lysates may run through a third protein. Here binding means that the protein was enriched with, or labelled near, the bait; the list need not be complete. A no says only that the protein was not detected with the bait.
Assays:
Assay in all cases: affinity purification with mass spectrometry; GST-tagged baits on glutathione resin; soluble adult mouse forebrain extract in 50 mM HEPES pH 7.4, 100 mM NaCl, 2 mM EDTA, 1 % Triton X-100, 4 °C; Colloidal Blue-stained bands cut out, LC-MS/MS; only the target purified
[1] = target: GST-tagged E1 domain of APP (UniProt P05067)
[2] = target: GST-tagged E2 domain of APP (UniProt P05067)
[3] = target: GST-tagged SCN2B ectodomain (human) (UniProt O60939)

Chains of the proteins cited; added tags and fusions are not shown. A line that says so, or that is headed by a name, gives the form on record, which may keep a tag or linker. Residues count along the entry.
GST-tagged E1 domain of APP (P05067, residues 28-189): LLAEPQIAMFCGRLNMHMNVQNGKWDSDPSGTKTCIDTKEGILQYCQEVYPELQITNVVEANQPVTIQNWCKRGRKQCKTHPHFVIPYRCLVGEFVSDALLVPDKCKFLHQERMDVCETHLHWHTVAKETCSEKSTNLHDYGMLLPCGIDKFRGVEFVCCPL
GST-tagged E2 domain of APP (P05067, residues 374-565): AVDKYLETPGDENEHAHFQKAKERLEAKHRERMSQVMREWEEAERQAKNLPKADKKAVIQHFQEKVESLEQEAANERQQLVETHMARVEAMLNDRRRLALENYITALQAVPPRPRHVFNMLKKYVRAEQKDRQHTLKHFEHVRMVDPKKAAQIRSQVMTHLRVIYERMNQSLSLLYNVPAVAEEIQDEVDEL
UniProt O60939, residues 30-157: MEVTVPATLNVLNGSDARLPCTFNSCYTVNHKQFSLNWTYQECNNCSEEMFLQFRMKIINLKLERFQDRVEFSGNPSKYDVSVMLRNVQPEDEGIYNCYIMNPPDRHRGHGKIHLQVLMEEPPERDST
UniProt P46096: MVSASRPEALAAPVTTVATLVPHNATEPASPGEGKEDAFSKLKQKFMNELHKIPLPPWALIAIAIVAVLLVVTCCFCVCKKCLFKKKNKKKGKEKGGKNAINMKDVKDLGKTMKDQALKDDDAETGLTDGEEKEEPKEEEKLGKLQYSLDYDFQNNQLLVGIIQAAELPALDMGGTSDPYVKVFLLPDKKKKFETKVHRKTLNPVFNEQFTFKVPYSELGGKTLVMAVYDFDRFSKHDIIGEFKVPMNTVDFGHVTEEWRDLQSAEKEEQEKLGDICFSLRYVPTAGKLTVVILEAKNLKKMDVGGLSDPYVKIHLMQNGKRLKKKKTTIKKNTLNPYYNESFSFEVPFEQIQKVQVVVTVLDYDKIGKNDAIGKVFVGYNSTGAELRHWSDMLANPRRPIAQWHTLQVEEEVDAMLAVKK
UniProt P46097: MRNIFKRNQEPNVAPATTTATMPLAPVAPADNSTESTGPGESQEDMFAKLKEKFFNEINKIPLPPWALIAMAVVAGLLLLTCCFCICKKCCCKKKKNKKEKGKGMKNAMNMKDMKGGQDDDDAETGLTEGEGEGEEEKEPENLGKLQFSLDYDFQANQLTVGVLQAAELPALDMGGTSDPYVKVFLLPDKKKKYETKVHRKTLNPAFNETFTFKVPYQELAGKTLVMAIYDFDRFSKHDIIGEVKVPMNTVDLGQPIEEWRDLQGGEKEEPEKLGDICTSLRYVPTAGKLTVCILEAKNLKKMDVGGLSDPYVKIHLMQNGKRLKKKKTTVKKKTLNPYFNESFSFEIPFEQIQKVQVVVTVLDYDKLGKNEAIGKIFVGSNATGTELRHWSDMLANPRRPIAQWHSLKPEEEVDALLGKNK

Row | binding [1] | binding [2] | binding [3] | Substance
1 | no binding | no binding | no binding | Synaptotagmin-1 (endogenous, adult mouse forebrain) (from UniProt P46096 1-421)
2 | no binding | no binding | no binding | Synaptotagmin-2 (endogenous, adult mouse forebrain) (from UniProt P46097 1-422)

Source: publication PMC4511450
